Data as given in PubChem BioAssay AID504793 (Drosophila RNAi Screening Center, 2011)
Purpose: 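Knock-downs allowing continued mitosis even though DNA is damaged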 (primary screen). System: Drosophila S2R+ cells. Knock-down reagent: long dsRNA against Drosophila genes, about 0.25 µg dsRNA per well. Timing: 4 days of dsRNA, then 4 hours of drug before read-out. Conditions: doxorubicin 0.5 µM for 4 hours to cause double-strand breaks, in cells also given a low, harmless dose of dsRNA against nbs to sensitise the assay. Read-out: 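Mitotic index as the number of phospho-histone H3-positive cells in each well following doxorubicin, given as raw counts without normalisation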. Reading the numbers: mitotic cells: higher = more cells in mitosis, weaker G2 arrest. Call rule: 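Genes are called active only when high mitotic counts were reproduced with independent dsRNAs and mitosis was checked for delay without damage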. Meaning of the calls: active = confirmed in follow-up tests; inactive = not confirmed.
The deposit covers about 23,000 reagents; this is a random part of those with a known target gene and a result. In the full data, 62 (0.27%) are marked active. 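Calls come from follow-up tests whose scores are not deposited, so confirmed genes may have low counts here; counts are not normalised per plate.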 Raw values are not corrected between plates. Entries without a mark were called inactive.

Lis-1 [DRSC07459] gave mitotic cells, replicate 1 = 81.
Pdp1 [DRSC08896] gave mitotic cells, replicate 1 = 6.
Silencing of Pdp1 [DRSC08897] resulted in: mitotic cells, replicate 1 = 3.
After knock-down of Pdp1 [DRSC11251] the results were mitotic cells, replicate 1 = 6.
Knock-down of Pdp1 [DRSC22973] resulted in: mitotic cells, replicate 1 = 13.
Against indra [DRSC08558] the deposit lists mitotic cells, replicate 1 = 6.
Against indra [DRSC26845] the deposit lists mitotic cells, replicate 1 = 8.
After knock-down of Socs44A [DRSC06828], the screen gave mitotic cells, replicate 1 = 3.

Individual results from above:
Lis-1 [DRSC07459], mitotic cells, replicate 1 = 81
For “mitotic cells, replicate 1”, Socs44A [DRSC06828] shows 3

The listing continues:
Depletion of SecS [DRSC12222] gave: mitotic cells, replicate 1 = 7.
With knock-down of CG17883 [DRSC07838], the record shows mitotic cells, replicate 1 = 8.
Depletion of pippin [DRSC04489] came out at: mitotic cells, replicate 1 = 6.
With knock-down of CG18581 [DRSC10324] the results were mitotic cells, replicate 1 = 2.
With knock-down of CG4328 [DRSC23146], the screen gave mitotic cells, replicate 1 = 14.
CG4328 [DRSC28606] scored mitotic cells, replicate 1 = 5.
